Drug screen on melanoma cell lines: apoptosis marker

Data from the primary screen of doi:10.1371/journal.pone.0140310, rounded.

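Human melanoma cell lines in 1,536-well plates were treated with a pair of drugs for 72 h, then fixed, stained and imaged. Each value is the cleaved-PARP-positive fraction of nuclei relative to DMSO-treated wells, in %, so that 100 equals the control and higher values mean more apoptosis. Every drug was used at one fixed concentration, the higher of two screened. These are primary screening values without error estimates. Basal and induced levels differ widely between cell lines.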 This is part of the screen, not chosen by result. A dash means that no value is listed here.

Compounds and concentrations:
erlotinib: C#Cc1cccc(Nc2ncnc3cc(OCCOC)c(OCCOC)cc23)c1 at 4 µM
midostaurin: CO[C@@H]1[C@H](N(C)C(=O)c2ccccc2)C[C@H]2O[C@]1(C)n1c3ccccc3c3c4c(c5c6ccccc6n2c5c31)C(=O)NC4 at 0.4 µM
embelin: CCCCCCCCCCCC1=C(O)C(=O)C=C(O)C1=O at 6 µM
PF-562271: CN(c1ncccc1CNc1nc(Nc2ccc3c(c2)CC(=O)N3)ncc1C(F)(F)F)S(C)(=O)=O at 0.4 µM
tozasertib: Cc1cc(Nc2cc(N3CCN(C)CC3)nc(Sc3ccc(NC(=O)C4CC4)cc3)n2)n[nH]1 at 0.03 µM
vincristine: CC[C@]1(O)C[C@H]2CN(CCc3c([nH]c4ccccc34)[C@@](C(=O)OC)(c3cc4c(cc3OC)N(C=O)[C@H]3[C@@](O)(C(=O)OC)[C@H](OC(C)=O)[C@]5(CC)C=CCN6CC[C@]43[C@@H]65)C2)C1 at 0.0005 µM
OSI-906: C[C@]1(O)C[C@@H](c2nc(-c3ccc4ccc(-c5ccccc5)nc4c3)c3c(N)nccn32)C1 at 2 µM
decitabine: Nc1ncn([C@H]2C[C@H](O)[C@@H](CO)O2)c(=O)n1 at 0.5 µM

| Drugs | COLO 800 | A375 | A2058 | SK-MEL-2 | MEL-HO | WM451Lu | C32 | G-361 | SK-MEL-30 | MZ2-MEL | UACC-62 | COLO 792 |
|---|---|---|---|---|---|---|---|---|---|---|---|---|
| OSI-906 and midostaurin | 436 | - | 186 | 95.8 | 86.5 | 105 | 190 | 384 | 172 | 314 | 95.8 | 159 |
| PF-562271 and OSI-906 | 95.0 | 75.6 | 182 | 141 | 150 | 47.9 | 96.0 | 208 | 120 | 338 | 137 | 96.5 |
| tozasertib and midostaurin | 297 | - | 640 | 237 | 105 | 242 | 211 | 113 | 117 | 460 | 138 | 145 |
| midostaurin and PF-562271 | 260 | - | 668 | 331 | 70.1 | 287 | 360 | 228 | 109 | - | 165 | 188 |
| vincristine and embelin | 110 | 91.9 | 3940 | 1610 | 65.8 | 3080 | 106 | 228 | 502 | 608 | 300 | 165 |
| decitabine and midostaurin | 852 | - | 488 | 151 | 109 | 341 | 324 | 367 | 110 | 788 | 171 | 197 |
| tozasertib and vincristine | 405 | 156 | 88.0 | 217 | 120 | 164 | 406 | 75.6 | 221 | 272 | 298 | 46.4 |
| erlotinib and PF-562271 | 143 | 105 | 310 | 654 | 60.9 | 78.8 | 305 | 165 | 61.7 | 126 | 299 | 353 |
| vincristine and midostaurin | 220 | - | 543 | 115 | 162 | 421 | 341 | 346 | 594 | 280 | 151 | 142 |
| tozasertib and erlotinib | 274 | 29.9 | 165 | 156 | 185 | 145 | 66.7 | 305 | 227 | 36.0 | 189 | 170 |
| decitabine and OSI-906 | 101 | 99.1 | 150 | 64.9 | 81.5 | 39.9 | 121 | 89.2 | 122 | 98.2 | 131 | 55.1 |
| OSI-906 and erlotinib | 33.1 | 196 | 197 | 230 | 134 | 78.1 | 89.3 | 249 | 95.5 | 57.9 | 202 | 248 |
| vincristine and decitabine | 173 | 54.5 | 252 | 99.9 | 179 | 310 | 102 | 177 | 216 | 263 | 271 | 78.7 |
| embelin and decitabine | 146 | 137 | 273 | 153 | 178 | 201 | 159 | 78.8 | 158 | 141 | 174 | 188 |
| OSI-906 and embelin | 193 | 74.6 | 56.6 | 74.6 | 152 | 136 | 74.3 | 127 | 66.4 | 27.7 | 198 | 119 |
| decitabine and erlotinib | 23.9 | 84.9 | 159 | 142 | 54.0 | 108 | 14.2 | 144 | 139 | 144 | 103 | 360 |
| OSI-906 and tozasertib | 123 | 66.1 | 149 | 88.7 | 39.7 | 38.7 | 203 | 165 | 169 | 206 | 86.7 | 121 |
| embelin and PF-562271 | 37.2 | 81.4 | 147 | 217 | 56.8 | 261 | 187 | 91.1 | 103 | 97.2 | 117 | 295 |
| vincristine and erlotinib | 475 | 640 | 1230 | 3110 | 407 | 334 | 154 | 1250 | 608 | 186 | 259 | 743 |
| midostaurin and erlotinib | 207 | - | 361 | 140 | 103 | 153 | 72.3 | 302 | 80.4 | 298 | 189 | 554 |
| erlotinib and embelin | 50.5 | 83.5 | 206 | 104 | 127 | 177 | 91.1 | 299 | 96.1 | 72.4 | 73.9 | 144 |
| decitabine and PF-562271 | 77.9 | 214 | 233 | 110 | 68.1 | 223 | 912 | 149 | 122 | 129 | 226 | 203 |
| OSI-906 and vincristine | 122 | 312 | 1070 | 93.2 | 154 | 410 | 293 | 54.8 | 252 | 71.0 | 248 | 90.4 |

2 of the entries, repeated:

Drugs,COLO 800,A375,A2058,SK-MEL-2,MEL-HO,WM451Lu,C32,G-361,SK-MEL-30,MZ2-MEL,UACC-62,COLO 792
tozasertib and midostaurin,297,-,640,237,105,242,211,113,117,460,138,145
OSI-906 and tozasertib,123,66.1,149,88.7,39.7,38.7,203,165,169,206,86.7,121